These are yes or no findings as the source states them, for the method shown. Binding seen in cells or lysates may run through a third protein. A result given as binding can be weak or reduced; the word gives no strength.

Amino acid sequences for entries named in this document (tags omitted). A change or cut given only in a name is not applied to a line headed by its entry.
UniProt Q969T3: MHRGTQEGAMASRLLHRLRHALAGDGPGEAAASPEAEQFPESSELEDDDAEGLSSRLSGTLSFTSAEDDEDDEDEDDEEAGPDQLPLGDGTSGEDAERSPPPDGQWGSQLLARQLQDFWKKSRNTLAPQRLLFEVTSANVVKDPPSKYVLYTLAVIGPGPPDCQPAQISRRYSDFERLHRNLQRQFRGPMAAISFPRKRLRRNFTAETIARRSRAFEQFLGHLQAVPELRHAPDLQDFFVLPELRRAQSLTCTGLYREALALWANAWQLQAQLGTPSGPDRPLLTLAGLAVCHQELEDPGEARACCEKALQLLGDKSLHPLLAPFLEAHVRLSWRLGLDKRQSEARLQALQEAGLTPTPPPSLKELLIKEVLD

B1: septin 7 (SEPT7), endogenous (protein, UniProt Q16181 1-437)
chain: MSVSARSAAAEERSVNSSTMVAQQKNLEGYVGFANLPNQVYRKSVKRGFEFTLMVVGESGLGKSTLINSLFLTDLYSPEYPGPSHRIKKTVQVEQSKVLIKEGGVQLLLTIVDTPGFGDAVDNSNCWQPVIDYIDSKFEDYLNAESRVNRRQMPDNRVQCCLYFIAPSGHGLKPLDIEFMKRLHEKVNIIPLIAKADTLTPEECQQFKKQIMKEIQEHKIKIYEFPETDDEEENKLVKKIKDRLPLAVVGSNTIIEVNGKRVRGRQYPWGVAEVENGEHCDFTILRNMLIRTHMQDLKDVTNNVHYENYRSRKLAAVTYNGVDNNKNKGQLTKSPLAQMEEERREHVAKMKKMEMEMEQVFEMKVKEKVQKLKDSEAELQRRHEQMKKNLEAQHKELEEKRRQFEDEKANWEAQQRILEQQNSSRTLEKNKKKGKIF
B2: septin 2 (SEPT2), endogenous (protein, UniProt Q15019 1-361)
chain: MSKQQPTQFINPETPGYVGFANLPNQVHRKSVKKGFEFTLMVVGESGLGKSTLINSLFLTDLYPERVIPGAAEKIERTVQIEASTVEIEERGVKLRLTVVDTPGYGDAINCRDCFKTIISYIDEQFERYLHDESGLNRRHIIDNRVHCCFYFISPFGHGLKPLDVAFMKAIHNKVNIVPVIAKADTLTLKERERLKKRILDEIEEHNIKIYHLPDAESDEDEDFKEQTRLLKASIPFSVVGSNQLIEAKGKKVRGRLYPWGVVEVENPEHNDFLKLRTMLITHMQDLQEVTQDLHYENFRSERLKRGGRKVENEDMNKDQILLEKEAELRRMQEMIARMQAQMQMQMQGGDGDGGALGHHV
B3: septin 9 (SEPT9), endogenous (protein, UniProt Q9UHD8 1-586)
chain: MKKSYSGGTRTSSGRLRRLGDSSGPALKRSFEVEEVETPNSTPPRRVQTPLLRATVASSTQKFQDLGVKNSEPSARHVDSLSQRSPKASLRRVELSGPKAAEPVSRRTELSIDISSKQVENAGAIGPSRFGLKRAEVLGHKTPEPAPRRTEITIVKPQESAHRRMEPPASKVPEVPTAPATDAAPKRVEIQMPKPAEAPTAPSPAQTLENSEPAPVSQLQSRLEPKPQPPVAEATPRSQEATEAAPSCVGDMADTPRDAGLKQAPASRNEKAPVDFGYVGIDSILEQMRRKAMKQGFEFNIMVVGQSGLGKSTLINTLFKSKISRKSVQPTSEERIPKTIEIKSITHDIEEKGVRMKLTVIDTPGFGDHINNENCWQPIMKFINDQYEKYLQEEVNINRKKRIPDTRVHCCLYFIPATGHSLRPLDIEFMKRLSKVVNIVPVIAKADTLTLEERVHFKQRITADLLSNGIDVYPQKEFDEDSEDRLVNEKFREMIPFAVVGSDHEYQVNGKRILGRKTKWGTIEVENTTHCEFAYLRDLLIRTHMQNIKDITSSIHFEAYRVKRLNEGSSAMANGMEEKEPEAPEM

In the first test the target is GFP-SNX21 site-directed mutant of E307 (human) (UniProt Q969T3). Put plainly: co-IP; GFP-nanotrap precipitation of GFP-tagged constructs from transiently transfected HEK293-T lysates (50 mM Tris-HCl pH 7.4, 0.5% NP40), 1 h at 4°C; western blot for endogenous Htt and septins.
For B1, the binding result was “binds”.
As to B2, the binding result was “binds”.
On the same count and under the same terms, next, B3: “binds”.

Another test deals with GFP-SNX21 site-directed mutant of E365 (human) (UniProt Q969T3). The test is described as above.
For B1, the binding result is on record as “binds”.
For B2, the binding result is “binds”.
Take B3: the binding entry was “binds”.

A further test concerns the target GFP-SNX21 site-directed mutant of L332 (human) (UniProt Q969T3). The test is described as above.
B1: the binding entry is “binds”.
For B2, the binding entry is given as “binds”.
Same read-out and setting: next, B3: “binds”.

Another test has as its target GFP-SNX21 site-directed mutant of L310 (human) (UniProt Q969T3). The test is described as above.
With B1, the binding entry is “binds”.
Same read-out and setting: next, B2: “binds”; B3: “binds”.

In the next test the target is GFP-SNX21 site-directed mutant of E270 (human) (UniProt Q969T3). Described as above.
As to B1, the binding result was “binds”.
The same measure, in the same setting: next, B2: “binds”; B3: “binds”.

The next test addresses GFP-SNX21 site-directed mutant of I368 (human) (UniProt Q969T3). The test is described as above.
With B1, the binding entry was “binds”.
Turning to B2, the binding entry is listed as “binds”.
Regarding B3, the binding entry is given as “binds”.

A further test has as its target GFP-SNX21 site-directed mutant of L313 (human) (UniProt Q969T3). The description is as above.
B1: the binding entry is reported as “binds”.
Turning to B2, the binding result is reported as “binds”.
For the molecule B3, the binding entry is on record as “binds”.

The target of a further test is GFP-SNX21 site-directed mutant of E370 (human) (UniProt Q969T3). Described as above.
For B1, the binding entry is given as “binds”.
B2: the binding result is “binds”.
The same measure, in the same setting: next, B3: “binds”.

For another test, the target named is GFP-SNX21 site-directed mutant of L260 (human) (UniProt Q969T3). The description is as above.
As for B1, the binding entry was “binds”.
Same read-out and setting: the value for B2 was “binds”; that for B3 was “binds”.
